# Experimental data taken from US20050256040A1, “Artificially designed pore-forming proteins with anti-tumor effects” (Buck Institute, priority 2004, published 2005).
# At least one structure is not confirmed: it was looked up by name or label, or the drawing left a doubt.
# Legend:
# Type in all cases: cell-based
# KS1767 cells = settings: KS 1767 cells; read-out: LC50 at 30 min
# Procedure: All cell lines were obtained commercially. The Kaposi's sarcoma-derived cell line KS1767 and the breast carcinoma cell line MDA-MB-435 have been described previously (see, for example, Herndier, et al. (1994) Aids 8, 575-581; Reisbach, et al. (1982) Anticancer Res. 2, 257-260; and Ellerby, et al. (1999) Nat. Med. 5, 1032-1038) and were cultured in 10% fetal bovine serum/Dulbecco's modified Eagle's medium, containing antibiotics.
# To evaluate the effects of SGP on cell membranes multiple human cell lines of different origins were treated (see Table I, which presents a comparison of LC50 data for SGP, SGP-L, and SGP-E on a variety of cultured human cell types).
# Cell viability was determined by morphology (see Ellerby, et al. (1999) Nat. Med. 5, 1032-1038; and Ellerby, et al. (1997) J. Neurosci. 17, 6165-6178). For viability assays, KS1767 cells were incubated with the concentrations of SGP, SGP-L, SGP-E, or control peptides indicated in the figures and in Table I. Briefly, at the given time points, cell culture medium was aspirated from adherent cells. Cells were then gently washed once with PBS at 37° C. A 20-fold dilution of the dye mixture (100 μg/ml acridine orange and 100 μg/ml ethidium bromide) in PBS was then gently pipetted on the cells and viewed on an inverted microscope (Nikon TE 300). […] Percent viability was calculated relative to untreated cells.
# [1] = system: PC3 = human prostate cancer cells; experiment: Cell viability LC50, PC3 cells; settings: read-out: LC50 at 30 min
# [2] = system: H358 = human lung carcinoma cells; experiment: Cell viability LC50, H358 cells; settings: read-out: LC50 at 30 min
substance,measurement,setting,value
"Ac-AAAAAAWAAAAGPNGLYLKKKLLKKLLKLLGNPGLKLYKKLLKKLLLKLGNPGLLKLYKKLLKKLLKLL-OH [SGP, small globular protein]",CC50,KS1767 cells,5 µM
same,CC50,[1],2.5 µM
same,CC50,[2],6 µM
